Laboratory results: PubChem BioAssay AID1224826 (NIAID, 2016)
Assay: 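Knock-downs that raise or lower Tnf reporter signal after endotoxin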 (primary screen). System: RAW264.7 G9 macrophages from mouse bearing reporters for p65 (GFP) and the Tnf promoter (mCherry). Knock-down reagent: siRNA pool against mouse genes, 100 nM. Timing: 16 h of LPS stimulation, after 2 days of siRNA transfection. Challenge: bacterial lipopolysaccharide (Salmonella minnesota R595), 10 ng/ml. Measured: 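Nuclear mCherry signal of the Tnf promoter reporter measured by imaging after background removal, scaled to each plate median and turned into robust z-scores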. Scale: Tnf reporter robust z-score: higher = stronger Tnf promoter reporter signal after LPS. Hit rule: 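Called active when robust z-score is at most -1.3, matching the median of the Tlr4 knock-down control, or over 3; control wells and wells with under 50 cells never active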. Meaning of the calls: active = Tnf reporter clearly lowered or raised; inactive = no clear change in Tnf reporter.
This is an unselected part of about 17,000 reagents. About 1,110 of them (6.6%) count as active. 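Active means lowered or raised reporter signal; replicate intensities are raw and not normalised per plate.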 The numbers tell different reagents against one gene apart. Not all columns of the deposit are shown. No sequences are given here.

| Gene | reagent | Tnf reporter robust z-score | fewer than 50 cells in well | call |
| --- | --- | --- | --- | --- |
| Sprr2a1 (small proline-rich protein 2A1) | 1 | -0.73 | enough cells in well | inactive |
| Rapgef4 (Rap guanine nucleotide exchange factor (GEF) 4) | 1 | 0.77 | enough cells in well | inactive |
| Rapgef4 (Rap guanine nucleotide exchange factor (GEF) 4) | 2 | -2.02 | enough cells in well | active |
| Akr1b8 (aldo-keto reductase family 1, member B8) | 1 | -1.04 | enough cells in well | inactive |
| Or5an1 (olfactory receptor family 5 subfamily AN member 1) | 1 | 0.54 | enough cells in well | inactive |
| Or5an1 (olfactory receptor family 5 subfamily AN member 1) | 2 | 0.25 | enough cells in well | inactive |
| Cox19 (cytochrome c oxidase assembly protein 19) | 1 | – | fewer than 50 cells per well; well left out of calls | inactive |
| Cyb5r1 (cytochrome b5 reductase 1) | 1 | -1.06 | enough cells in well | inactive |
| Acp7 (acid phosphatase 7, tartrate resistant) | 1 | -0.13 | enough cells in well | inactive |
| Alkbh5 (alkB homolog 5, RNA demethylase) | 1 | -0.42 | enough cells in well | inactive |
| Sstr2 (somatostatin receptor 2) | 1 | -0.96 | enough cells in well | inactive |
| Ciao2b (cytosolic iron-sulfur assembly component 2B) | 1 | -0.16 | enough cells in well | inactive |
| Il22b (interleukin 22B) | 1 | -1.1 | enough cells in well | inactive |
| Arhgap27 (Rho GTPase activating protein 27) | 1 | -0.12 | enough cells in well | inactive |
| Arhgap27 (Rho GTPase activating protein 27) | 2 | – | fewer than 50 cells per well; well left out of calls | inactive |
| Arl16 (ADP-ribosylation factor-like 16) | 1 | -1.03 | enough cells in well | inactive |
| Cxcl15 (C-X-C motif chemokine ligand 15) | 1 | -1.01 | enough cells in well | inactive |
| Ssxb13 (SSX member B13) | 1 | – | fewer than 50 cells per well; well left out of calls | inactive |
| Or2q1 (olfactory receptor family 2 subfamily Q member 1) | 1 | – | fewer than 50 cells per well; well left out of calls | inactive |
| Apcs (amyloid P component, serum) | 1 | – | fewer than 50 cells per well; well left out of calls | inactive |
| Med28 (mediator complex subunit 28) | 1 | 0.35 | enough cells in well | inactive |
| Tm2d2 (TM2 domain containing 2) | 1 | – | fewer than 50 cells per well; well left out of calls | inactive |
| Or1j20 (olfactory receptor family 1 subfamily J member 20) | 1 | 0.96 | enough cells in well | inactive |
| Grik3 (glutamate receptor, ionotropic, kainate 3) | 1 | -0.26 | enough cells in well | inactive |
| Cdkal1 (CDK5 regulatory subunit associated protein 1-like 1) | 1 | -0.58 | enough cells in well | inactive |
| Prdm8 (PR domain containing 8) | 1 | -1.46 | enough cells in well | active |
| Slc6a14 | 1 | – | fewer than 50 cells per well; well left out of calls | inactive |
| Or8s2 (olfactory receptor family 8 subfamily S member 2) | 1 | -0.07 | enough cells in well | inactive |
| Lrfn3 | 1 | -0.05 | enough cells in well | inactive |
| 5830427D03Rik (retired record) | 1 | 1.08 | enough cells in well | inactive |
| Or9i1 (olfactory receptor family 9 subfamily I member 1) | 1 | -1.18 | enough cells in well | inactive |
| Prcc (papillary renal cell carcinoma (translocation-associated)) | 1 | 0.26 | enough cells in well | inactive |
| Dtx3 (deltex 3, E3 ubiquitin ligase) | 1 | -0.84 | enough cells in well | inactive |
| Metap1 (methionyl aminopeptidase 1) | 1 | -0.82 | enough cells in well | inactive |
| F12 (coagulation factor XII (Hageman factor)) | 1 | 0.16 | enough cells in well | inactive |
| Scn9a (sodium channel, voltage-gated, type IX, alpha) | 1 | 0.02 | enough cells in well | inactive |
| Vmn1r174 (vomeronasal 1 receptor 174) | 1 | 0.69 | enough cells in well | inactive |
| Dnajc2 (DnaJ heat shock protein family (Hsp40) member C2) | 1 | 3.53 | enough cells in well | active |
| Dnajc2 (DnaJ heat shock protein family (Hsp40) member C2) | 2 | -1.05 | enough cells in well | inactive |
| Gm20558 (predicted gene, 20558) | 1 | -0.99 | enough cells in well | inactive |
| Maz | 1 | -0.26 | enough cells in well | inactive |
| Tnfrsf25 (tumor necrosis factor receptor superfamily, member 25) | 1 | -1.25 | enough cells in well | inactive |
| Gpr137b (G protein-coupled receptor 137B) | 1 | -0.08 | enough cells in well | inactive |
| Npdc1 (neural proliferation, differentiation and control 1) | 1 | 0.85 | enough cells in well | inactive |
| Pom121 (nuclear pore membrane protein 121) | 1 | -0.37 | enough cells in well | inactive |
| Or4e1 (olfactory receptor family 4 subfamily E member 1) | 1 | -0.67 | enough cells in well | inactive |
| Tfb1m (transcription factor B1, mitochondrial) | 1 | -0.31 | enough cells in well | inactive |
| Gnat1 (G protein subunit alpha transducin 1) | 1 | 0.13 | enough cells in well | inactive |
| Clec3b (C-type lectin domain family 3, member b) | 1 | 0.07 | enough cells in well | inactive |
| Kif16b (kinesin family member 16B) | 1 | 0.66 | enough cells in well | inactive |
| Ovgp1 (oviductal glycoprotein 1) | 1 | – | fewer than 50 cells per well; well left out of calls | inactive |
| Ca14 (carbonic anhydrase 14) | 1 | -0.72 | enough cells in well | inactive |
| Ppil2 (peptidylprolyl isomerase (cyclophilin)-like 2) | 1 | -0.75 | enough cells in well | inactive |
| V1rb5 (retired record) | 1 | 2.51 | enough cells in well | inactive |
| 4933421I07Rik (RIKEN cDNA 4933421I07 gene) | 1 | -0.63 | enough cells in well | inactive |
| Tbx1 (T-box 1) | 1 | -1.29 | enough cells in well | inactive |
| Vmn1r203 (vomeronasal 1 receptor 203) | 1 | 1.77 | enough cells in well | inactive |
| Ccr5 (C-C motif chemokine receptor 5) | 1 | -0.18 | enough cells in well | inactive |
| Or13p4 (olfactory receptor family 13 subfamily P member 4) | 1 | -0.79 | enough cells in well | inactive |
| Hoxa10 (homeobox A10) | 1 | -0.45 | enough cells in well | inactive |
| Cds1 (CDP-diacylglycerol synthase 1) | 1 | 0.76 | enough cells in well | inactive |
| Usp43 (ubiquitin specific peptidase 43) | 1 | 6.25 | enough cells in well | active |
| Or4p19 (olfactory receptor family 4 subfamily P member 19) | 1 | -0.66 | enough cells in well | inactive |
| Clec4a2 (C-type lectin domain family 4, member a2) | 1 | 0.93 | enough cells in well | inactive |
| Gtf2h1 (general transcription factor II H, polypeptide 1) | 1 | 2.14 | enough cells in well | inactive |
| Faf2 (Fas associated factor family member 2) | 1 | – | fewer than 50 cells per well; well left out of calls | inactive |
| Krt19 (keratin 19) | 1 | -0.19 | enough cells in well | inactive |
| Dll3 (delta like canonical Notch ligand 3) | 1 | 2.6 | enough cells in well | inactive |
| Parva (parvin, alpha) | 1 | 1.5 | enough cells in well | inactive |
| Or4f54 (olfactory receptor family 4 subfamily F member 54) | 1 | 0.6 | enough cells in well | inactive |
| Tbx4 (T-box 4) | 1 | -0.21 | enough cells in well | inactive |
| Ppp1r14c (protein phosphatase 1, regulatory inhibitor subunit 14C) | 1 | -0.39 | enough cells in well | inactive |
| Mobp (myelin-associated oligodendrocytic basic protein) | 1 | 5.18 | enough cells in well | active |
| Miga1 (mitoguardin 1) | 1 | -0.79 | enough cells in well | inactive |
| Or51b4 (olfactory receptor family 51 subfamily B member 4) | 1 | 2.69 | enough cells in well | inactive |

Called active (from the list above):
| Gene | reagent | Tnf reporter robust z-score | fewer than 50 cells in well | call |
| --- | --- | --- | --- | --- |
| Rapgef4 (Rap guanine nucleotide exchange factor (GEF) 4) | 2 | -2.02 | enough cells in well | active |
| Prdm8 (PR domain containing 8) | 1 | -1.46 | enough cells in well | active |
| Dnajc2 (DnaJ heat shock protein family (Hsp40) member C2) | 1 | 3.53 | enough cells in well | active |
| Usp43 (ubiquitin specific peptidase 43) | 1 | 6.25 | enough cells in well | active |
| Mobp (myelin-associated oligodendrocytic basic protein) | 1 | 5.18 | enough cells in well | active |
